Measured values taken from the supplement of paper PMC10849652.
Some of the results follow. Residues, ends and D or L forms follow the SMILES beside them. *: point of attachment. Cbz = O=C(OCc1ccccc1)*

By UniProt entry, the sequences of proteins in these tests, tags left out. Where a name states a change or a piece, a line headed by the entry shows the natural chain unless it says otherwise.
UniProt P46977: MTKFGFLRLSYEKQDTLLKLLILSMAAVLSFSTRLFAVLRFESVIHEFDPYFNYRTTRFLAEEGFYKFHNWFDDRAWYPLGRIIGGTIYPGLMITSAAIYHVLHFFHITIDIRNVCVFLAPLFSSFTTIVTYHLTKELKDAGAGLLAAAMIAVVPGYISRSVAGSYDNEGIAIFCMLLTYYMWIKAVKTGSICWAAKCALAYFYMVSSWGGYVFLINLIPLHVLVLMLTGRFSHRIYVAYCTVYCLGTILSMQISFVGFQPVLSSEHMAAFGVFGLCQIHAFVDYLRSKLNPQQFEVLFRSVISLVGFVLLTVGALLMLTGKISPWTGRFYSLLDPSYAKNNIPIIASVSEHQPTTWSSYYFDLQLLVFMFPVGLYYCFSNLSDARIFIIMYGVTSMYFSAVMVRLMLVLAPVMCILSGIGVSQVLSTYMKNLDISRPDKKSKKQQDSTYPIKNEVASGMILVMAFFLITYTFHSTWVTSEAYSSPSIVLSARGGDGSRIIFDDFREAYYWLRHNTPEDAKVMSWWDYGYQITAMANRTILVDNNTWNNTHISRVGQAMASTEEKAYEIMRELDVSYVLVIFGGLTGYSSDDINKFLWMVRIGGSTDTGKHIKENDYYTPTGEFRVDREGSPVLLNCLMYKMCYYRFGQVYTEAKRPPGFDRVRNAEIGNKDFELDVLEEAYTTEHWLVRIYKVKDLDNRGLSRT
UniProt P37802: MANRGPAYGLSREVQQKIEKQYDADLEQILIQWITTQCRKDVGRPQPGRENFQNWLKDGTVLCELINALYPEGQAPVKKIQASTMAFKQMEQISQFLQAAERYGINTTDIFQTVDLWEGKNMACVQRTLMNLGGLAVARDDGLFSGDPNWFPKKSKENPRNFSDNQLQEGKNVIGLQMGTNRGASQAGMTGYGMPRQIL
UniProt O60506: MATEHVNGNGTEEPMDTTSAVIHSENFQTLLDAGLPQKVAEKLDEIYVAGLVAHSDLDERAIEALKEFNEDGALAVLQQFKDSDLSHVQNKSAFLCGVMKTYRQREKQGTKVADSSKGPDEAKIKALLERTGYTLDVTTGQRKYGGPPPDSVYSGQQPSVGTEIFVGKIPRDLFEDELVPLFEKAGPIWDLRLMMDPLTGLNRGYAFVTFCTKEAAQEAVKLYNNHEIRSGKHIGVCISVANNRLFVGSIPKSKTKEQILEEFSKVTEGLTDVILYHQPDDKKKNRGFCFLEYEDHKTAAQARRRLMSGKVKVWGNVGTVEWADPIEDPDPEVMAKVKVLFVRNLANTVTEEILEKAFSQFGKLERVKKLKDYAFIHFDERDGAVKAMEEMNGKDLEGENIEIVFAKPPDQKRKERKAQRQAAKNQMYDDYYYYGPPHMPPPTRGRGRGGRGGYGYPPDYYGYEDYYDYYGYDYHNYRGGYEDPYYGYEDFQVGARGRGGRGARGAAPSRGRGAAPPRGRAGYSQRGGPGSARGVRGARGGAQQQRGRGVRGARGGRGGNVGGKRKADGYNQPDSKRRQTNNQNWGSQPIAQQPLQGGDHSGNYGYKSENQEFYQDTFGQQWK
UniProt Q8IYB8: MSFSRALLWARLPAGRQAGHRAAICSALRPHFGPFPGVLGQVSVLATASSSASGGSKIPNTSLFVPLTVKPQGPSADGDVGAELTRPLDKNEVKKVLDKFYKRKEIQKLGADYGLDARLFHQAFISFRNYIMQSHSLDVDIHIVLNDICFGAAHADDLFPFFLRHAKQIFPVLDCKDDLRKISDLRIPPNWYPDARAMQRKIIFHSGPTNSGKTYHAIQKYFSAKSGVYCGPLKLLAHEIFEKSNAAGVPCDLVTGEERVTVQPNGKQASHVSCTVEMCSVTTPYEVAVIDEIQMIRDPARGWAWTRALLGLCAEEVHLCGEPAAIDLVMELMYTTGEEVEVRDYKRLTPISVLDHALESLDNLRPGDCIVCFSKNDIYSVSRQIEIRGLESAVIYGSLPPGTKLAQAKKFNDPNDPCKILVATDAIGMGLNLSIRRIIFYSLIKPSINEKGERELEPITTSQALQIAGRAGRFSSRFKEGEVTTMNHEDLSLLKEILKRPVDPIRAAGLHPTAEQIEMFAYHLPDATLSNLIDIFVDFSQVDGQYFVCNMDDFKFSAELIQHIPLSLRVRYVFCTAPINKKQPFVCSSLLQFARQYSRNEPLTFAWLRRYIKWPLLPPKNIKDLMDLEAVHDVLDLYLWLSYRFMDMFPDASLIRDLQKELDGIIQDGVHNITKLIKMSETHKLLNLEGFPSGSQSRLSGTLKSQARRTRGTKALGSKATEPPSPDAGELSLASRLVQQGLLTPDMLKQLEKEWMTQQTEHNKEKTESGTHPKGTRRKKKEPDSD
UniProt P63165, whole entry, looked up: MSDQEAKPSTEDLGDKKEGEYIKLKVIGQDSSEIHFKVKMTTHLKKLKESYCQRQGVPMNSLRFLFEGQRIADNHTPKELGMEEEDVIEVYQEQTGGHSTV
UniProt Q16563: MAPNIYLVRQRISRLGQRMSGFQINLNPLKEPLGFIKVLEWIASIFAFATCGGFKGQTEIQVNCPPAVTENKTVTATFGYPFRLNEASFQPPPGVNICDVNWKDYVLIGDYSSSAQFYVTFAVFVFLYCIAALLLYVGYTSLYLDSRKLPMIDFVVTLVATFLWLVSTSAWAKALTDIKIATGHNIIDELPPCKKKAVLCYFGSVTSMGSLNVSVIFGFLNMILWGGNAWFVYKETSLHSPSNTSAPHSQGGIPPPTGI
UniProt Q96BW9: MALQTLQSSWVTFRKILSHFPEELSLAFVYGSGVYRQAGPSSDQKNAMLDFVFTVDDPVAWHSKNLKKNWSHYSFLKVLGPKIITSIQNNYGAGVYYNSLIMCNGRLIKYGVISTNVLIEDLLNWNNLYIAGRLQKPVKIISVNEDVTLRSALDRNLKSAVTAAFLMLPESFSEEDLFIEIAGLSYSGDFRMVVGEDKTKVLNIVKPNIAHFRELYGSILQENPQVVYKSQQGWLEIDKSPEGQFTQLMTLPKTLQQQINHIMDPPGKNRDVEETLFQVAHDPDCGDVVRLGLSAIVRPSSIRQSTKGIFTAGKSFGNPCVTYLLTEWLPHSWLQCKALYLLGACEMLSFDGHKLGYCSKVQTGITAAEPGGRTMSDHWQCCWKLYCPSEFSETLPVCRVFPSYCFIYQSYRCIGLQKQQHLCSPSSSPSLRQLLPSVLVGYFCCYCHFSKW
UniProt Q92804: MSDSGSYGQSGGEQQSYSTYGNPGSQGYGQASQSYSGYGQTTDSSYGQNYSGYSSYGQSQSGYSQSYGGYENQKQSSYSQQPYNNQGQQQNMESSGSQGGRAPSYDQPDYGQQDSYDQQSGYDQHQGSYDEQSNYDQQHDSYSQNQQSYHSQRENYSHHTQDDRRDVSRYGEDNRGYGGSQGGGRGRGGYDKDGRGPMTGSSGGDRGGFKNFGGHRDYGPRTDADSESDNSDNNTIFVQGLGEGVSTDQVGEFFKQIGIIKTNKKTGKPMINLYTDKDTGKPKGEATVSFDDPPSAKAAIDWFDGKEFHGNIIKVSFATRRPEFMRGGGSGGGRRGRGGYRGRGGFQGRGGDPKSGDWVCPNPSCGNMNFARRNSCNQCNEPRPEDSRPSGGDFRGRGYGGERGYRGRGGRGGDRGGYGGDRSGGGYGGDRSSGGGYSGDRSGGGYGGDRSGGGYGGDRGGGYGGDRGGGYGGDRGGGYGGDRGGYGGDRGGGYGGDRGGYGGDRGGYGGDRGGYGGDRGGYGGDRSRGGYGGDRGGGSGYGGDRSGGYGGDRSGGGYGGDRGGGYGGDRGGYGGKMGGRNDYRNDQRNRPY
UniProt O15400: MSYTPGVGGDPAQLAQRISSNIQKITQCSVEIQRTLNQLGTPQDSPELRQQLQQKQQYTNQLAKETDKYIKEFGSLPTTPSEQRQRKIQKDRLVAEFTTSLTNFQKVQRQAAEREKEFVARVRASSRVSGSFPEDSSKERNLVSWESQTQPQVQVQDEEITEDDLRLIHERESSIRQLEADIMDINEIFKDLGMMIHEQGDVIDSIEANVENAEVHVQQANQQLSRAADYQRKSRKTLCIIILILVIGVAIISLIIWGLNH
UniProt Q7Z422: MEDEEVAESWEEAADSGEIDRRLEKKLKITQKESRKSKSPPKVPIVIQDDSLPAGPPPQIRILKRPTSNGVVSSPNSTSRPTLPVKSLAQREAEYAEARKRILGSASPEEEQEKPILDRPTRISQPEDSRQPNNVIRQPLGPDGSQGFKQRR
UniProt Q13188: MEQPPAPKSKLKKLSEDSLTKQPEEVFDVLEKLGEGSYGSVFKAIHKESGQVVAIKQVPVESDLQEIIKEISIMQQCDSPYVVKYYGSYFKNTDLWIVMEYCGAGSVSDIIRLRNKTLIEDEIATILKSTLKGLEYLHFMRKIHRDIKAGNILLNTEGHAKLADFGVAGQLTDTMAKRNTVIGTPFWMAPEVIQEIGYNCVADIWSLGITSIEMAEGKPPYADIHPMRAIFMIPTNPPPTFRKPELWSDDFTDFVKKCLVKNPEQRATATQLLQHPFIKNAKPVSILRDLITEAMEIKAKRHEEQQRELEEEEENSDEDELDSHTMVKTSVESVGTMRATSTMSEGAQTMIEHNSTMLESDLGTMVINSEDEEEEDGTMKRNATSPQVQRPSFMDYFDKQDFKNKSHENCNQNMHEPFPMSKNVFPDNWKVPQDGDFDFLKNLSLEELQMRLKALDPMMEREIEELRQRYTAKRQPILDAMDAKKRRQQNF
UniProt Q6ICL3: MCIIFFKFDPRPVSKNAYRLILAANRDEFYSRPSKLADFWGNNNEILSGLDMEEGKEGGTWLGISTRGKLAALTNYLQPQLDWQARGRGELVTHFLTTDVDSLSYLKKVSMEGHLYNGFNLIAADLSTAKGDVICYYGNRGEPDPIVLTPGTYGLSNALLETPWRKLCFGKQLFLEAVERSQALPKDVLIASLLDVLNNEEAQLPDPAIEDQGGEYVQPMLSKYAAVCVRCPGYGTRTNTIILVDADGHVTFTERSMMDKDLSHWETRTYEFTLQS
UniProt Q9H7L9: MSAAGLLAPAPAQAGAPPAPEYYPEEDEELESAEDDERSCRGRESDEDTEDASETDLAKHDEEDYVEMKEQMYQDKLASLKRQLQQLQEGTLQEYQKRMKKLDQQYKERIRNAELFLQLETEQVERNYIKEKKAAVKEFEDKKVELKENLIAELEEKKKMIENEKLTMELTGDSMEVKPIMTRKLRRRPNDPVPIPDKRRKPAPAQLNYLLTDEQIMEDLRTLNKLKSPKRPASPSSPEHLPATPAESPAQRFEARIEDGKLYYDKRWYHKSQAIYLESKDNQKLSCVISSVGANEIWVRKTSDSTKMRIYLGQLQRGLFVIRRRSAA
UniProt Q9C0B7: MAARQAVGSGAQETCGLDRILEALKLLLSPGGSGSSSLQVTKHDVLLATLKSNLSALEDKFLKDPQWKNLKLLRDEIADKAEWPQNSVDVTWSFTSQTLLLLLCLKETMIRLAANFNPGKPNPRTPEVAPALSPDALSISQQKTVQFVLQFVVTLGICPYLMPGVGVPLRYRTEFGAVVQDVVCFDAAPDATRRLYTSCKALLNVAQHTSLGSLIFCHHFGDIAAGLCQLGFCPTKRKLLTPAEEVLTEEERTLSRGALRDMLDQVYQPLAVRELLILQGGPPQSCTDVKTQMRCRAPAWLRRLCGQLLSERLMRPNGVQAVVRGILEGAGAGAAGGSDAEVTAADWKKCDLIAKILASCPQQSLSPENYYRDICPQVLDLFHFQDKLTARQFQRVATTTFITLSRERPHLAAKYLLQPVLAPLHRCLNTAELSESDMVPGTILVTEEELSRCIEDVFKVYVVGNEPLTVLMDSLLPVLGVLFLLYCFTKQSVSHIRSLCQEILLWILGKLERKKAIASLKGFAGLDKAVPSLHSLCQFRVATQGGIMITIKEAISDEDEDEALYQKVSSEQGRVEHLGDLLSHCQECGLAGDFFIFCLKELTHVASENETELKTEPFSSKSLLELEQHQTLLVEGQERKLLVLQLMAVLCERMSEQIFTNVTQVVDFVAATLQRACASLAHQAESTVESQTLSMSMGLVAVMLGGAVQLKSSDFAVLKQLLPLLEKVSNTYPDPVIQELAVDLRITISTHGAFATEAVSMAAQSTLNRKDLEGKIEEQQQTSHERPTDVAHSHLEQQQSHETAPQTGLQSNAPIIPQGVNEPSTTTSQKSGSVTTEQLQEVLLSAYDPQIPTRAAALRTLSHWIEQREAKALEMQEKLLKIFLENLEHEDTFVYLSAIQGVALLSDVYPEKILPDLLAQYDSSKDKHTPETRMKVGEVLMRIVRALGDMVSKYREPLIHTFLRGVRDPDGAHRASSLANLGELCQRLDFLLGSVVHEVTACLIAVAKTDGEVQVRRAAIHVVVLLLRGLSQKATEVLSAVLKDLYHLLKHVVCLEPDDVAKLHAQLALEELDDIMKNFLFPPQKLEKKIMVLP

Columns and labels:
Test in all cases: log2 fold change, soluble protein after heating vs DMSO (PISA); higher = thermal stabilisation; K562 cells, 10 uM, 30 min; active = over 0.2 and 3.5 SD of the protein, either way, in both replicates (recomputed)
erlotinib = compound: C#Cc1cccc(Nc2ncnc3cc(OCCOC)c(OCCOC)cc23)c1 [erlotinib]
Outline: (§1)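 K562 cells at 2×10^6 cells/mL were treated with 10 μM compound for 30 min. Aliquots were heated for 3 min across 48°C-58°C, pooled, and extracted in PBS with 0.5% NP-40 at 4°C; soluble protein was the supernatant after 21,000xg for 90 min. Soluble protein was quantified by TMTpro 16plex LC-MS/MS with channel sums equalised, and reported as log2 fold change in thermal stability against DMSO controls, with values from duplicates.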

[1] = compound: C/C(=N\NC(=O)C1=CC(=CC=C1)S(=O)(=O)N2CCOCC2)/C3=C(C=CC(=C3)Cl)O
Outline: as §1

[2] = compound: C1=CC(=C(C=C1Cl)C2=NC3=NC=CN=C3C(=N2)NC4=CC=NC=C4)F
Outline: as §1

[3] = compound: C1=CC(=CC=C1C2=NC3=C(N2)C=C(C=C3)C(=O)N)OC4=CC=C(C=C4)Cl
Outline: as §1

[4] = compound: C1=CC2=C(C=CC(=C2)/C=C\3/C(=O)NC(=NCC4=CC=CS4)S3)N=C1
Outline: as §1

[5] = compound: C1=CC2=NC=CN=C2C=C1/C=C/3\C(=O)NC(=O)S3
Outline: as §1

[6] = compound: C1=CC=C(C=C1)C2=NC(=C(N2)C3=CC=NC=C3)C4=CC(=C(C=C4)Cl)O
Outline: as §1

[7] = compound: C1=CC=C2C(=C1)C3=NNC4=CC=CC(=C43)C2=O
Outline: as §1

[8] = compound: C1CCN(C1)C(=O)NC2=CC=CC(=C2)NC3=NC=C(C(=N3)NCCC4=CN=CN4)Br
Outline: as §1

[9] = compound: C1CN(CCC1(CC2=CC=C(C=C2)Cl)N)C3=NC=NC4=C3C=CN4
Outline: as §1

IRAK-1-4 Inhibitor I = compound: C1COCCN1CCN2C3=CC=CC=C3N=C2NC(=O)C4=CC(=CC=C4)[N+](=O)[O-] [IRAK-1-4 Inhibitor I]
Outline: as §1

ibrutinib = compound: C=CC(=O)N1CCC[C@@H](n2nc(-c3ccc(Oc4ccccc4)cc3)c3c(N)ncnc32)C1 [ibrutinib]
Outline: as §1

[10] = compound: CC(=O)c1cnc2ccc(-c3cc(Cl)c(O)c(Cl)c3)nc2c1N[C@H]1CC[C@H](CN(C)C)CC1
Outline: as §1

ralimetinib = compound: CC(C)(C)Cn1c(N)nc2ccc(-c3[nH]c(C(C)(C)C)nc3-c3ccc(F)cc3)nc21 [ralimetinib]
Outline: as §1

[11] = compound: CC(C)(O)CC(=O)NCCn1ccc2ncnc(Nc3ccc(Oc4cccc(C(F)(F)F)c4)c(Cl)c3)c21
Outline: as §1

[12] = compound: CC(C)C1=C2N=C(C=C(N2N=C1)NCC3=CC=CC=C3)NCCCCCCN
Outline: as §1

[13] = compound: CC(C)C[C@@H](C=O)NC(=O)[C@H](CC(C)C)NC(=O)[C@H](CC(C)C)NC(=O)OCc1ccccc1
Outline: as §1

pinometostat = compound: CC(C)N(C[C@H]1O[C@@H](n2cnc3c(N)ncnc32)[C@H](O)[C@@H]1O)[C@H]1C[C@@H](CCc2nc3cc(C(C)(C)C)ccc3[nH]2)C1 [pinometostat]
Outline: as §1

[14] = compound: CC1=C(C(CC(=O)N1)C2=CC=C(C=C2)C(F)(F)F)C(=O)NC3=C(C=C4C(=C3)C=NN4)F
Outline: as §1

[15] = compound: CC1=C(C2=C(C=C1)C(=O)C3=CC=CC=C3N2CCCN)C
Outline: as §1

Measured: log2 fold change

STT3A (UniProt P46977)
inactive: erlotinib -0.024 | [1] 0.008 | [2] 0.007 | [3] -0.033 | [4] -0.015 | [5] 0.039 | [6] 0.031 | [7] -0.01 | [8] 0.019 | [9] 0.003 | IRAK-1-4 Inhibitor I -0.014 | ibrutinib -0.047 | [10] 0.02 | ralimetinib -0.007 | [11] 0.011 | [12] -0.09 | [13] -0.027 | pinometostat 0.028 | [14] 0.021 | [15] -0.018

TAGLN2 isoform 2 (UniProt P37802)
inactive: erlotinib -0.008 | [1] 0.019 | [2] 0.078 | [3] -0.019 | [4] -0.043 | [5] 0.001 | [6] 0.023 | [7] 0.038 | [8] -0.028 | [9] 0.01 | IRAK-1-4 Inhibitor I 0.047 | ibrutinib 0.009 | [10] 0.001 | ralimetinib 0.014 | [11] 0.015 | [12] 0.004 | [13] -0.018 | pinometostat -0.058 | [14] 0.004 | [15] 0.008

SYNCRIP (UniProt O60506)
inactive: erlotinib -0.092 | [1] -0.047 | [2] -0.197 | [3] 0.064 | [4] -0.011 | [5] 0.013 | [6] -0.036 | [7] -0.022 | [8] 0.06 | [9] -0.066 | IRAK-1-4 Inhibitor I -0.099 | ibrutinib 0.043 | [10] 0.066 | ralimetinib 0.093 | [11] 0.081 | [12] -0.021 | [13] 0.08 | pinometostat 0.09 | [14] 0.003 | [15] -0.223

SUPV3L1 (UniProt Q8IYB8)
inactive: erlotinib 0 | [1] 0.003 | [2] 0.019 | [3] -0.019 | [4] -0.006 | [5] 0.023 | [6] 0 | [7] -0.023 | [8] -0.017 | [9] 0.016 | IRAK-1-4 Inhibitor I -0.013 | ibrutinib 0.007 | [10] -0.019 | ralimetinib -0.026 | [11] 0.004 | [12] 0.003 | [13] -0.006 | pinometostat -0.013 | [14] 0.008 | [15] 0.037

SUMO1 (UniProt P63165)
inactive: erlotinib -0.126 | [1] 0.167 | [2] 0.006 | [3] -0.06 | [4] 0.182 | [5] 0.043 | [6] 0.045 | [7] -0.06 | [8] 0.211 | [9] 0.033 | IRAK-1-4 Inhibitor I -0.079 | ibrutinib -0.007 | [10] -0.077 | ralimetinib 0.053 | [11] 0.139 | [12] -0.065 | [13] 0.01 | pinometostat 0.022 | [15] -0.125

TACO1 (UniProt Q9BSH4)
inactive: erlotinib 0.188 | [1] 0.177 | [2] 0.116 | [3] -0.074 | [4] 0.169 | [5] -0.038 | [6] 0.251 | [7] -0.007 | [8] -0.132 | [9] -0.016 | IRAK-1-4 Inhibitor I -0.187 | ibrutinib -0.11 | [10] -0.153 | ralimetinib 0.186 | [11] -0.406 | [12] -0.087 | [13] -0.238 | pinometostat -0.211 | [14] -0.057 | [15] 0.124

SUPT6H (UniProt Q7KZ85)
inactive: erlotinib 0.117 | [1] 0.049 | [2] 0.127 | [3] -0.057 | [4] 0.155 | [5] -0.033 | [6] 0.071 | [7] -0.118 | [8] -0.227 | [9] -0.063 | IRAK-1-4 Inhibitor I -0.353 | ibrutinib -0.081 | [10] 0.166 | ralimetinib 0.042 | [11] -0.116 | [12] 0 | [13] -0.062 | pinometostat -0.162 | [14] 0.099 | [15] 0.315

SYPL1 (UniProt Q16563)
inactive: erlotinib 0.014 | [1] 0.018 | [2] -0.013 | [3] -0.021 | [4] 0.004 | [5] 0.034 | [6] -0.011 | [7] -0.005 | [8] 0.004 | [9] 0.027 | IRAK-1-4 Inhibitor I 0.042 | ibrutinib 0.019 | [10] 0.006 | ralimetinib -0.081 | [11] 0.038 | [12] 0.025 | [13] -0.034 | pinometostat -0.011 | [14] -0.02 | [15] 0.018

TAMM41 isoform 3 (UniProt Q96BW9)
inactive: erlotinib 0.047 | [1] 0.03 | [2] 0.058 | [3] -0.007 | [4] 0.061 | [5] 0.009 | [6] 0.045 | [7] 0.007 | [8] -0.007 | [9] 0.056 | IRAK-1-4 Inhibitor I 0.075 | ibrutinib 0.022 | [10] -0.061 | ralimetinib -0.04 | [11] -0.172 | [12] -0.214 | [13] 0.043 | pinometostat 0.015 | [15] 0.169

TAF15 (UniProt Q92804)
inactive: erlotinib -0.088 | [1] -0.058 | [2] -0.197 | [3] 0.011 | [4] -0.016 | [5] 0.001 | [6] -0.068 | [7] -0.037 | [8] 0.029 | [9] -0.077 | IRAK-1-4 Inhibitor I -0.029 | ibrutinib 0.094 | [10] 0.029 | ralimetinib 0.012 | [11] 0.152 | [12] 0.104 | [13] 0.083 | pinometostat 0.042 | [14] -0.038 | [15] 0.099

STX7 (UniProt O15400)
inactive: erlotinib 0.02 | [1] -0.029 | [2] 0.02 | [3] 0.021 | [4] -0.02 | [5] 0.02 | [6] -0.009 | [7] -0.007 | [8] 0 | [9] 0.056 | IRAK-1-4 Inhibitor I -0.01 | ibrutinib 0.024 | [10] 0.011 | ralimetinib -0.039 | [11] 0.012 | [12] -0.087 | [13] -0.009 | pinometostat -0.109 | [15] 0.017

SZRD1 (UniProt Q7Z422)
inactive: erlotinib 0.008 | [1] -0.017 | [2] 0.008 | [3] 0.051 | [4] -0.024 | [5] -0.008 | [6] 0.029 | [7] -0.034 | [8] 0.026 | [9] -0.008 | IRAK-1-4 Inhibitor I 0.063 | ibrutinib -0.027 | [10] -0.017 | ralimetinib -0.03 | [11] 0.036 | [12] 0.095 | [13] 0.018 | pinometostat -0.035 | [14] 0.022 | [15] -0.008

STK3 isoform 2 (UniProt Q13188)
inactive: erlotinib 0.031 | [1] -0.067 | [2] 0.016 | [3] -0.004 | [4] 0.025 | [5] 0.016 | [6] 0.006 | [7] -0.121 | [8] -0.039 | [9] 0.017 | IRAK-1-4 Inhibitor I -0.02 | ibrutinib -0.046 | [10] -0.161 | ralimetinib -0.014 | [11] 0.007 | [12] 0.029 | [13] -0.043 | pinometostat -0.046 | [14] -0.009 | [15] 0.013

TANGO2 isoform 4 (UniProt Q6ICL3)
inactive: erlotinib 0.021 | [1] 0.099 | [2] -0.031 | [3] 0.029 | [4] 0.114 | [5] 0.017 | [6] -0.015 | [7] -0.068 | [8] -0.025 | [9] 0.025 | IRAK-1-4 Inhibitor I -0.018 | ibrutinib -0.082 | [10] 0.018 | ralimetinib -0.054 | [11] 0.02 | [12] -0.063 | [13] -0.047 | pinometostat 0.019 | [14] 0.04 | [15] 0.027

SUDS3 (UniProt Q9H7L9)
inactive: erlotinib 0.044 | [1] 0.125 | [2] -0.008 | [3] -0.069 | [4] -0.04 | [5] -0.057 | [6] -0.045 | [7] 0.098 | [8] 0.037 | [9] -0.001 | IRAK-1-4 Inhibitor I 0.016 | ibrutinib -0.052 | [10] -0.007 | ralimetinib -0.129 | [11] 0.155 | [12] -0.028 | [13] -0.214 | pinometostat -0.041 | [14] 0.073 | [15] -0.074

Reprinted at random: 2 entries already listed.
TAMM41 isoform 3 (UniProt Q96BW9)
inactive: erlotinib 0.047 | [1] 0.03 | [2] 0.058 | [3] -0.007 | [4] 0.061 | [5] 0.009 | [6] 0.045 | [7] 0.007 | [8] -0.007 | [9] 0.056 | IRAK-1-4 Inhibitor I 0.075 | ibrutinib 0.022 | [10] -0.061 | ralimetinib -0.04 | [11] -0.172 | [12] -0.214 | [13] 0.043 | pinometostat 0.015 | [15] 0.169

SUMO1 (UniProt P63165)
inactive: erlotinib -0.126 | [1] 0.167 | [2] 0.006 | [3] -0.06 | [4] 0.182 | [5] 0.043 | [6] 0.045 | [7] -0.06 | [8] 0.211 | [9] 0.033 | IRAK-1-4 Inhibitor I -0.079 | ibrutinib -0.007 | [10] -0.077 | ralimetinib 0.053 | [11] 0.139 | [12] -0.065 | [13] 0.01 | pinometostat 0.022 | [15] -0.125

Next part

TANGO6 (UniProt Q9C0B7)
inactive: erlotinib 0.208 | [1] 0.032 | [2] -0.003 | [3] -0.026 | [4] -0.001 | [5] 0.057 | [6] 0.025 | [7] -0.056 | [8] -0.026 | [9] 0 | IRAK-1-4 Inhibitor I -0.117 | ibrutinib -0.077 | [10] 0.052 | ralimetinib 0.197 | [11] -0.153 | [12] -0.098 | [13] -0.068 | pinometostat 0 | [15] 0.006
